Test results: patent US20220348609A1 (University of Washington, published 2022)
Results are given in words; binding and its absence hold for the method and conditions named. Some binding calls cover weakened binding; strength is not graded here.

Protein sequences, listed by entry. Tags and fused reporters are not part of them. Lines headed by an entry give the natural chain unless they say otherwise; changes in a name come on top.
UniProt P06756: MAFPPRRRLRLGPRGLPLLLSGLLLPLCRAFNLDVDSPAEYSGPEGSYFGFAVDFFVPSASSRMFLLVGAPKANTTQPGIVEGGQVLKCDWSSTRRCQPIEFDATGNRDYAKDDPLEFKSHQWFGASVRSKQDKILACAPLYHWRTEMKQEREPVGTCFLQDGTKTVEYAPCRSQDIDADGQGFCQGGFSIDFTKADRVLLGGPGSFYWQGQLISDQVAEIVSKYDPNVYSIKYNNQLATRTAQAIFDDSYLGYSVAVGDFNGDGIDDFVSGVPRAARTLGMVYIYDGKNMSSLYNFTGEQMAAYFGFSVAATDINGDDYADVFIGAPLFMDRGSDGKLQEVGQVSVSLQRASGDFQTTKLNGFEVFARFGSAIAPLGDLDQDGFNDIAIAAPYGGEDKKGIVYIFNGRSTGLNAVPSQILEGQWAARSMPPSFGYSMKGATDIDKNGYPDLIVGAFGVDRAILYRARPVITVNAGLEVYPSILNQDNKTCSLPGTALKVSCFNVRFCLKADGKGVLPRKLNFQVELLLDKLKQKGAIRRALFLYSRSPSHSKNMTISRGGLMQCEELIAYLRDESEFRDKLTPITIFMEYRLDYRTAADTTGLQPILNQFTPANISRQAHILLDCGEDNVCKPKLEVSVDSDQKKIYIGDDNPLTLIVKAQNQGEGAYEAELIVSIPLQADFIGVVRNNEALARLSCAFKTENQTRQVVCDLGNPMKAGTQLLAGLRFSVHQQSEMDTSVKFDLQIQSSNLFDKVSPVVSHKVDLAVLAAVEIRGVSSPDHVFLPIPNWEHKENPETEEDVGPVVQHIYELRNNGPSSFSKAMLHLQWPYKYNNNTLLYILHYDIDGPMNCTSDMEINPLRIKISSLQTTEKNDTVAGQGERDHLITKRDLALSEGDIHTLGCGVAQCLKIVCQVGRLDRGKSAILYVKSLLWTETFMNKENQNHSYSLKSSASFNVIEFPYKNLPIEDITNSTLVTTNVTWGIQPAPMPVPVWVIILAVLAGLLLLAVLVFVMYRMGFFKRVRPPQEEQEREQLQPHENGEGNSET
UniProt P18564: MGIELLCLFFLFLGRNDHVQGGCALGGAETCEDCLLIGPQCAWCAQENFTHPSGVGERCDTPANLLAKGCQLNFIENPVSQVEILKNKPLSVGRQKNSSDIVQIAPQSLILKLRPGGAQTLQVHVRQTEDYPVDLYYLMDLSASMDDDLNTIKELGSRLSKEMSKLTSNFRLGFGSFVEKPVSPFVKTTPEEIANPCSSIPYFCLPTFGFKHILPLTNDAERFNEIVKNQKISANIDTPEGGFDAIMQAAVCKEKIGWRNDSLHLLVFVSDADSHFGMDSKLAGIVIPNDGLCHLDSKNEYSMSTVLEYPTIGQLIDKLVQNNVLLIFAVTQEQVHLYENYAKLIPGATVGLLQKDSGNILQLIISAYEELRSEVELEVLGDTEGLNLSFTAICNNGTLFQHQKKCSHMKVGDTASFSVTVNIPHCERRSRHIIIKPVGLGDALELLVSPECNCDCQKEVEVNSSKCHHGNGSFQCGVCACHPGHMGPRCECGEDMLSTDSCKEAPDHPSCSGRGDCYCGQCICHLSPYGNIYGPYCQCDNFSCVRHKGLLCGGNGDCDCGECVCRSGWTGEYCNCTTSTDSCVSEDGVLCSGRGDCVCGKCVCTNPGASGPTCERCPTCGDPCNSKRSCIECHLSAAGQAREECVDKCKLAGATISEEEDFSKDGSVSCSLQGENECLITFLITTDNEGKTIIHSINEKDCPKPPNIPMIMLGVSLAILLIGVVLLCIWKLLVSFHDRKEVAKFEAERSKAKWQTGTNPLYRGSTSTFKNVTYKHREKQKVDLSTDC

Target: human αvβ6 integrin, soluble protein (biotinylated for yeast display; in solution for BLI) (human) (UniProt P06756+P18564)
Assay: assay not named

B1: BP1_disulf (E13T_disulf2) (designed binder)
chain: MTKCVVRFVFRGDLATLMLRAVKDHLKKEGPHWNITSTNNGAELVVRGIHESDAKRIAKWVEKRFPGVHTETQCD
modifications: one engineered intramolecular disulfide bond
binding: binds
